# According to the supplement of paper PMC10403144:
# The list shows a part of the results.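 Rule for the calls: active = mitochondrial OCR inhibition above 30% at 1 uM; inactive = 30% or less.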 Single values are uncertain, as repeats are few or missing.
# System: Toxoplasma gondii RH tachyzoites
# Assay: inhibition of mitochondrial O2 consumption rate (% inhibition (relative to pre-injection OCR and atovaquone/antimycin A control)); higher = stronger ETC inhibition
# Conditions: 1 µM; injection port (sequential injection order): B
row,SMILES,inhibition of mitochondrial O2 consumption rate
1,CS(=O)(=O)c1ccc(C(=O)N(CC2CCCO2)c2nc3ccccc3s2)cc1[N+](=O)[O-] (stereo not drawn),inactive: 2.68
2,Cc1[nH]c2ccccc2c1C(c1cccs1)N1CCN(C)CC1 (stereo not drawn),inactive: -13.3
3,Cc1ccc(NC(=O)c2nc[nH]c2C(=O)Nc2nc3ccccc3[nH]2)c(C)c1,inactive: -0.296
4,CC[P](CC)(CC)=[Au][S][C@H]1O[C@@H](COC(C)=O)[C@H](OC(C)=O)[C@@H](OC(C)=O)[C@@H]1OC(C)=O,active: 59

# Same assay, conditions: 1 µM; injection port (sequential injection order): C
row,SMILES,inhibition of mitochondrial O2 consumption rate
1,CCOC(=O)c1c(NC(=O)c2c(F)c(F)c(F)c(F)c2F)sc(C(N)=O)c1C,inactive: -15.7
2,CCc1ccccc1-n1c(C)cn2c3c(=O)n(C(C(=O)OC)C(C)C)c(=O)n(C)c3nc12 (stereo not drawn),inactive: -7.29
3,Clc1ccc(CN2CCN(C3=NCCN3)CC2)cc1Cl,inactive: -17.2
4,COc1ccc2nccc(NC(=O)C3CCN(CCc4ccc(Cl)cc4)CC3)c2n1,inactive: 6.55
5,COc1ccc(C(=N)N)cc1-c1cn(-c2ccc(C(=N)N)cc2)nn1,inactive: -21.9
6,Nc1ccc(C(=O)Nc2ccc(-c3nc4ccccc4o3)cc2)cc1,inactive: -4.03
7,CCCCOC(=O)Nc1cc2nc(C3CCCCC3)[nH]c2cc1N1CCCC1,inactive: -30.7
8,O=C(C1CCN(c2nnc(-n3cccc3)s2)CC1)N1CCC(Cc2ccccc2)CC1,inactive: 3.56
9,CC(C)n1nc(-c2cc3c(Cl)cccc3[nH]2)c2c(N)ncnc21,inactive: -19.6

# Individual results from the list.
# In inhibition of mitochondrial O2 consumption rate, CCOC(=O)c1c(NC(=O)c2c(F)c(F)c(F)c(F)c2F)sc(C(N)=O)c1C is listed with inactive: -15.7
# In inhibition of mitochondrial O2 consumption rate, Clc1ccc(CN2CCN(C3=NCCN3)CC2)cc1Cl is listed with inactive: -17.2
